Article PMC11380446
Results are given in words; binding and its absence hold for the method and conditions named. In cells and extracts the contact can be indirect. A yes stands for co-enrichment or nearness to the bait. Other partners may have been found.

Chains of the proteins cited; added tags and fusions are not shown.
UniProt P09874: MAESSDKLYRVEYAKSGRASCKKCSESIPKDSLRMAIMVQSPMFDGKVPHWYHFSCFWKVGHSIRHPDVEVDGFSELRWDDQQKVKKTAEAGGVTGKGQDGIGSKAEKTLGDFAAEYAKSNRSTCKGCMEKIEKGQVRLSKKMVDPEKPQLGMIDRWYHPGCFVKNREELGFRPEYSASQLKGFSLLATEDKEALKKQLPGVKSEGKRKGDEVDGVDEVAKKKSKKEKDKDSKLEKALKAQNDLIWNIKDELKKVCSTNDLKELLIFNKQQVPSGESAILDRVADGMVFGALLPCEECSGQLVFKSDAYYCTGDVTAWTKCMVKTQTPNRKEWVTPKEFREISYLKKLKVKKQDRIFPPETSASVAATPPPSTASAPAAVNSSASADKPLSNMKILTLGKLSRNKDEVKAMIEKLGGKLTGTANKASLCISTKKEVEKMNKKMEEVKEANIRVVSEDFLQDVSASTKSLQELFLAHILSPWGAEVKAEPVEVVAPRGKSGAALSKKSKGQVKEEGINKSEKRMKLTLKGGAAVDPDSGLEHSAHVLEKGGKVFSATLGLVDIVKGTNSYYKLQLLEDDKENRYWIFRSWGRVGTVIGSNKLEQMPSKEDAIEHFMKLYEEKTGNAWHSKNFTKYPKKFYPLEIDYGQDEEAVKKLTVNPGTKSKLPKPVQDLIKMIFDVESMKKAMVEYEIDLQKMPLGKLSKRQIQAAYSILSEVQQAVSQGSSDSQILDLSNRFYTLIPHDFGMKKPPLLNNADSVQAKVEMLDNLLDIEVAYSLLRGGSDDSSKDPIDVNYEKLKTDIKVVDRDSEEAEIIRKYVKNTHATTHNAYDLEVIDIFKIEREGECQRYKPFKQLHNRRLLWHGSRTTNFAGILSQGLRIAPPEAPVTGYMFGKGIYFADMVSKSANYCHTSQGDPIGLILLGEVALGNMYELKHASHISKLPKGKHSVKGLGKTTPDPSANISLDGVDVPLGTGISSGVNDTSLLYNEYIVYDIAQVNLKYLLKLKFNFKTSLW

Biological target: PARP1 (human (endogenous in SKOV3)) (UniProt P09874)
Assay: affinity purification with mass spectrometry; Co-IP for PARP1 followed by MS; cell line not stated

## Ku80 (from UniProt P13010 1-732)
  binding: binds
